Data published in patent publication US7943141B2, “Activated polyoxazolines and compositions comprising the same” (Serina Therapeutics, Inc., priority 2007, dated 2011).

B1: POZ/RNAse: ribonuclease A modified with M-PEOZ-O—CH2—CO2—NHS (6 kDa) (conjugate, UniProt P61823 27-150, looked up)
Ribonuclease pancreatic: KETAAAKFERQHMDSSTSAASSSNYCNQMMKSRNLTKDRCKPVNTFVHESLADVQAVCSQKNVACKNGQTNCYQSYSTMSITDCRETGSSKYPNCAYKTTQANKHIIVACEGNPYVPVHFDASV
modifications: M-PEOZ 6 kDa conjugate
B2: PEG/RNAse: ribonuclease A modified with PEG-O—CH2—CO2—NHS (5.5 kDa) (conjugate, UniProt P61823 27-150, looked up)
Ribonuclease pancreatic: B1 Ribonuclease pancreatic
modifications: PEG 5.5 kDa conjugate

Experiment: Degree of protein modification by TNBS assay
Settings: conjugated amino groups as percentage of total

| Molecule | % modification (NH2:polymer molar ratio 1:1) | % modification (NH2:polymer molar ratio 2:1) |
| --- | --- | --- |
| B1 | 23% | 36% |
| B2 | 60% | 80% |
